Measurements as given in paper PMC3784558.

Tests used:
[1] = test system: GST-ZmDREB2.1/2A (Zea mays (B73)); experiment: EMSA; conditions: positive control, similar to ZmDREB2.7; LightShift Chemiluminescent EMSA Kit (Thermo Scientific) per manufacturer; pH and temperature not stated; recombinant protein; protein details: GST N-terminal (pGEX4T-1); label: 5' biotin
[2] = test system: GST-ZmDREB2.7 (Zea mays (B73)); experiment: EMSA; conditions: similar affinity to DRE2, competed by 10-500x cold probe; LightShift Chemiluminescent EMSA Kit (Thermo Scientific) per manufacturer; pH and temperature not stated; recombinant protein; protein details: GST N-terminal (pGEX4T-1); label: 5' biotin

Sequence: TTGATACTACCGACATGAGTTGATACTACCGACATGAGT (double strand) [DRE1 (ACCGAC)]
- binding result [1]: binds
- binding result [2]: binds

Construct, isoform or probe ends are uncertain for at least one entry. For some assays here: At least one verdict rests on a figure or table, not on a statement of the authors.
